PubChem BioAssay AID504744, Drosophila RNAi Screening Center – 2011
Test: 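Find genes whose loss alters insulin-driven dAkt phosphorylation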 (primary screen). Cells: Drosophila Kc167 cells. Reagent: long dsRNA against Drosophila genes, 250 ng dsRNA per well of a 384-well plate. Timing: 3 days of knock-down, then overnight serum-free starvation before stimulation. Treatment: bovine insulin at 387 nM for 10 minutes after 12 h without serum. Detection: 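Per-well phospho-dAkt level from an in-cell fluorescent antibody stain, divided by a DNA-dye signal; log2 residuals turned into z-scores that take cell number into account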. Hit rule: 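Hit in the insulin screen when the two-replicate mean z-score is more extreme than plus or minus 2.5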.
The screen tested about 23,000 reagents; shown is a random part of those with a known target gene and a result. Over the whole deposit, 98 (0.43%) got an active call. 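Only hit calls are given; the phospho-dAkt signals, z-scores and hit direction were not deposited.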 A plus sign joins genes that one reagent is predicted to hit.

gene knocked down,amplicon,Outcome
CG14841,DRSC14965,inactive
CG12035,DRSC08238,inactive
Septin1,DRSC20573,inactive
CG4596,DRSC15608,inactive
Cpr64Ac,DRSC08462,inactive
CG4151,DRSC18351,inactive
CG33160,DRSC08197,inactive
MrgBP,DRSC06417,inactive
CG31741,DRSC02887,inactive
CG11898,DRSC14432,inactive
PpD3,DRSC16796,inactive
Snx1,DRSC00531,inactive
l(1)G0020,DRSC18198,inactive
JIL-1,DRSC11200,inactive
chb,DRSC11469,inactive
Trf5,DRSC00412,inactive
CG16739,DRSC06621,inactive
CG16815,DRSC02521,inactive
CG6867,DRSC20013,inactive
CG13047,DRSC09928,inactive
CG13575,DRSC04211,inactive
CG13575,DRSC22851,inactive
AGO2,DRSC09999,inactive
AGO2,DRSC10847,inactive
Cp19,DRSC11121,inactive
CCT3,DRSC16602,inactive
Jig,DRSC14974,inactive
Lac,DRSC07452,inactive
CG12971,DRSC11681,inactive
Apt1,DRSC10348,inactive
SK,DRSC17387,inactive
SK,DRSC17751,inactive
SK,DRSC17887,inactive
SK,DRSC17888,inactive
SK,DRSC18353,inactive
SK,DRSC21840,inactive
Or24a,DRSC00768,inactive
Cnot4,DRSC02830,inactive
Cnot4,DRSC02831,inactive
Nmdar1,DRSC12071,inactive
Nmdar1,DRSC12356,inactive
link,DRSC06368,inactive
CG10864,DRSC14273,inactive
CG4465,DRSC15584,inactive
CG42362 + CG42363,DRSC04265,inactive
ATP6AP2,DRSC16420,inactive
CG5023,DRSC15697,inactive
AOX2,DRSC15338,inactive
CG34166,DRSC02482,inactive
CG16935,DRSC06638,inactive
CG6739,DRSC02987,inactive
Ctps,DRSC09342,inactive
Ctps,DRSC10728,inactive
Ctps,DRSC10729,inactive
Reg-2,DRSC08690,inactive
pkm,DRSC19674,inactive
Acp53Ea,DRSC05916,inactive
CG10839,DRSC01965,inactive
Tret1-2,DRSC07117,inactive
CG5787,DRSC02895,inactive
stum,DRSC04268,inactive
stum,DRSC04270,inactive
CG4362,DRSC15567,inactive
CG11368,DRSC17778,inactive

Reformatted: results already given
gene knocked down | amplicon | Outcome
SK | DRSC17888 | inactive
SK | DRSC18353 | inactive
SK | DRSC21840 | inactive
Or24a | DRSC00768 | inactive
Cnot4 | DRSC02830 | inactive
Cnot4 | DRSC02831 | inactive
Nmdar1 | DRSC12071 | inactive
Nmdar1 | DRSC12356 | inactive
link | DRSC06368 | inactive
CG10864 | DRSC14273 | inactive
CG4465 | DRSC15584 | inactive
CG42362 + CG42363 | DRSC04265 | inactive
ATP6AP2 | DRSC16420 | inactive
CG5023 | DRSC15697 | inactive
AOX2 | DRSC15338 | inactive
CG34166 | DRSC02482 | inactive
CG16935 | DRSC06638 | inactive
CG6739 | DRSC02987 | inactive
Ctps | DRSC09342 | inactive
Ctps | DRSC10728 | inactive
Ctps | DRSC10729 | inactive

More results follow:
gene knocked down,amplicon,Outcome
CG18628,DRSC10328,inactive
CG18223,DRSC10306,inactive
CG31259,DRSC14366,inactive
CG33704,DRSC03838,inactive
CG17290,DRSC06662,inactive
porin,DRSC03594,inactive
CG2201,DRSC03721,inactive
ATPsynbetaL,DRSC10503,inactive
unc-13-4A,DRSC10201,inactive
unc-13-4A,DRSC10202,inactive
unc-13-4A,DRSC10203,inactive
unc-13-4A,DRSC11013,inactive
CG8950,DRSC07300,inactive
Chd1,DRSC00745,inactive
DIP1,DRSC20818,inactive
CG6712,DRSC02981,inactive
CG6712,DRSC21690,inactive
dnt,DRSC03522,inactive
schuy,DRSC10284,inactive
Klp67A,DRSC11205,inactive
CG17267,DRSC15207,inactive
Mur11Da,DRSC18960,inactive
Ldh,DRSC11198,inactive
PTP-ER,DRSC04636,inactive
Dnali1,DRSC16158,inactive
TrpRS,DRSC14097,inactive
Or49b,DRSC07494,inactive
CG10979,DRSC12153,inactive
Lamtor4,DRSC08436,inactive
hog,DRSC19057,inactive
Kmn1,DRSC19666,inactive
rho-7,DRSC07304,inactive
Torsin,DRSC18570,inactive
CR34254,DRSC09562,inactive
ArgRS-m,DRSC14186,inactive
lab,DRSC12627,inactive
Rrp6,DRSC16223,inactive
nec,DRSC06769,inactive
CG17230,DRSC15203,inactive
CG7702,DRSC16293,inactive
Uck,DRSC13661,inactive
Uck,DRSC16028,inactive
CG13766,DRSC02271,inactive
exex,DRSC10972,inactive
CG16826,DRSC02527,inactive
Ssrp,DRSC04658,inactive
Reg-5,DRSC04647,inactive
Prp6,DRSC10724,inactive
Prp6,DRSC21773,inactive
CG18649,DRSC10334,inactive
CR31700,DRSC03682,inactive
Sirt2,DRSC15714,inactive
BG642163,DRSC00342,inactive
BG642163,DRSC00343,inactive
vih,DRSC09778,inactive
CG13613,DRSC14616,inactive
CG11322,DRSC02142,inactive
CHMP2B,DRSC10436,inactive
CG14971,DRSC08430,inactive
Svil,DRSC07981,inactive
Svil,DRSC08296,inactive
Svil,DRSC08332,inactive
Svil,DRSC08333,inactive
Svil,DRSC08494,inactive
CG12259,DRSC14486,inactive
sNPF,DRSC02309,inactive
bonsai,DRSC04453,inactive
beat-Ib,DRSC03490,inactive
Prp31,DRSC10735,inactive
Coq9,DRSC22913,inactive
primo-2 + primo-1,DRSC16511,inactive
Spc105R,DRSC11663,inactive
Iswi,DRSC07446,inactive
CG32591,DRSC19063,inactive
Uvrag,DRSC02932,inactive
Or33a,DRSC03386,inactive
Sec61alpha,DRSC03256,inactive
CG5846,DRSC02904,inactive
LysB,DRSC08673,inactive
Mcm7,DRSC11219,inactive
Nlg2,DRSC03578,inactive
Osi13,DRSC12281,inactive
Rop,DRSC08693,inactive
SP,DRSC09664,inactive
CG31933,DRSC00457,inactive
Stlk,DRSC22687,inactive
His-Psi:CR31754,DRSC22051,inactive
Asator,DRSC17136,inactive
Gba1b,DRSC21531,inactive
CG3618,DRSC11746,inactive
CG13689,DRSC00358,inactive
Sidpn,DRSC02056,inactive
CG9667,DRSC16535,inactive
